Measurements: PMC4559962

B1: Doa1 (endogenous) (protein, UniProt P36037 1-715)
chain: MGYQLSATLKGHDQDVRDVVAVDDSKVASVSRDGTVRLWSKDDQWLGTVVYTGQGFLNSVCYDSEKELLLFGGKDTMINGVPLFATSGEDPLYTLIGHQGNVCSLSFQDGVVISGSWDKTAKVWKEGSLVYNLQAHNASVWDAKVVSFSENKFLTASADKTIKLWQNDKVIKTFSGIHNDVVRHLAVVDDGHFISCSNDGLIKLVDMHTGDVLRTYEGHESFVYCIKLLPNGDIVSCGEDRTVRIWSKENGSLKQVITLPAISIWSVDCMSNGDIIVGSSDNLVRIFSQEKSRWASEDEINELSTQVEKSTISSKTIEFDESKLSPYEILQSPGRKEGQIVVVKSPQGTIEAHQFSNSSWKKVGDVVGAGATGNDKKIEFEGKTYDYVFDVDIEDGKPPLKLPINVSDNPYTAADNFLARYELPMSYRDQVVQFILKNTNGISLDQPNDNASSSAVSPSKTSVMKVLPVKQYLIMENYNPDTIFNGIVKINSNEKTFDDEILAQIGGALHDIDESWELLLSFANTIRSNWEIKTPAYDIVRLIVKKLPYSSDIKDYIEEGLGNKNITLTMLTVRILVNCFNNENWGVKLLESNQVYKSIFETIDTEFSQASAKQSQNLAIAVSTLIFNYSALVTKGNSDLELLPIVADAINTKYGPLEEYQECEEAAYRLTVAYGNLATVEPTLRQFANSVTWLANIKRSYGNVPRFKDIFDDLS
B2: Wss1 (endogenous) (enzyme, UniProt P38838 1-269)
chain: MKTEGIKSPSAKYHDMAGSQRIPHKNPHIQKVAVLQSKPNKEDALNLIKEIAHKVSYLMKENHFKVTNLVEFYPRDQRLLGMNVNHGSKIMLRLRCSTDEFQFLPMECIMGTMLHELTHNLFGPHDKKFYNKLDELIGRQWVIEQRGLYDTFLGNGQRLGGRANLRSNRYPMTGISTNTGIVRKRGKGVKLGSLHPEGISSIDRGNSPRELAAFAAERRYRDDRWCGETKNNKDQIISDNISSSLEVVILDDDDEVLPGDTLIEVIDLT

What was measured:
[1] = molecular target: T1, Wss1-Myc13 (chromosomally tagged) (S. cerevisiae) (UniProt P38838); test: affinity purification with mass spectrometry; Wss1-Myc13 from the endogenous locus; lysate on anti-c-Myc agarose, 1 hr at 4°C; parental strain as control; LC-MS/MS
T1 sequence: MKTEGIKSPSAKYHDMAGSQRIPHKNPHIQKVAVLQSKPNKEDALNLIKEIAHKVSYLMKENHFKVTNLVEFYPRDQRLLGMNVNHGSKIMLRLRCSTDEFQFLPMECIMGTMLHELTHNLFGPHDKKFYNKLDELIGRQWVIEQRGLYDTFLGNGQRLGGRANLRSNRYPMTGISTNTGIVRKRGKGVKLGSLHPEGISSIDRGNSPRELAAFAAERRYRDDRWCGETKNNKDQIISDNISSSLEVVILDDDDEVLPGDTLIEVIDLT

[2] = molecular target: T2, his6-Flag (HF)-Doa1 (S. cerevisiae) (UniProt P36037); test: affinity purification with mass spectrometry; purified HF-Doa1 (1 mg) mixed with pre-cleared BY4742 whole cell lysate and retrieved on Ni-NTA resin; lysate without HF-Doa1 as control; LC-MS/MS; only the target purified
T2 sequence: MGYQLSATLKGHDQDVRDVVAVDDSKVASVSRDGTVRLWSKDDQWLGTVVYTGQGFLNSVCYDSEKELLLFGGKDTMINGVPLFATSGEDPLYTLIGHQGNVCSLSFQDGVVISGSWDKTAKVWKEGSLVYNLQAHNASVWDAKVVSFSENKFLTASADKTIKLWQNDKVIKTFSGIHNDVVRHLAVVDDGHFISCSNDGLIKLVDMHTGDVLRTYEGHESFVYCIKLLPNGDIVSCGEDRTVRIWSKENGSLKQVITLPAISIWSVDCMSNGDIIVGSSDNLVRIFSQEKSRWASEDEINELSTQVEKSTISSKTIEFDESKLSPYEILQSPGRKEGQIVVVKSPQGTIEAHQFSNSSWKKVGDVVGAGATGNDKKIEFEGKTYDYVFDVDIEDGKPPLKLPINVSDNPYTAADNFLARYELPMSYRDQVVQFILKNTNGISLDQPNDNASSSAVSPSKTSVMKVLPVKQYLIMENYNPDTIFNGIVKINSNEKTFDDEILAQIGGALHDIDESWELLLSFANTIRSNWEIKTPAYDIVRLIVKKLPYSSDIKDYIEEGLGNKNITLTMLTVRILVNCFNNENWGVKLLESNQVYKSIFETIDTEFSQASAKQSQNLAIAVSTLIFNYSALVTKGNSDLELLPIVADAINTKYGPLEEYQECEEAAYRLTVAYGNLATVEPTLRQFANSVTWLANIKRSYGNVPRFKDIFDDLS

Row | Binder | binding [1] | binding [2]
1 | B1 | binds | 
2 | B2 |  | binds

These are yes or no findings as the source states them, for the method shown. In cells and extracts the contact can be indirect. These calls come from enrichment with a bait or labelling near it, and not all partners need be listed. Sequences can lack the tags named with a protein.
